# Assay results reported in the supplement of paper PMC6411743.
# Sequences of proteins named here, by UniProt entry; tags and fusion partners are left off. A change or cut given only in a name is not applied to a line headed by its entry.
# UniProt Q16829: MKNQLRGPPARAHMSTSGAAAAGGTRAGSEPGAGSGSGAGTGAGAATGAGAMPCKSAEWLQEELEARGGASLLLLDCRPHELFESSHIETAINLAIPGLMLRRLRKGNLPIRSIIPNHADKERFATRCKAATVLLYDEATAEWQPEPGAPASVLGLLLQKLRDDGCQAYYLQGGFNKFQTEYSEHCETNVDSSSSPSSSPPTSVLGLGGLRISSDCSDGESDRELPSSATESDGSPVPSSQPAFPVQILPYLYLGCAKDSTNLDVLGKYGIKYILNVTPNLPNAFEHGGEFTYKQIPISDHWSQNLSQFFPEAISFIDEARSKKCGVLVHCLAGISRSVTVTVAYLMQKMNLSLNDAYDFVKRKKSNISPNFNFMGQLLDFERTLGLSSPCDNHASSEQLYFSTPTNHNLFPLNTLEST
# UniProt Q49B96: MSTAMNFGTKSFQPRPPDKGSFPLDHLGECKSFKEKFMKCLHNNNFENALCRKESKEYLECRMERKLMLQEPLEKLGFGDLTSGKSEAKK
# UniProt Q15058: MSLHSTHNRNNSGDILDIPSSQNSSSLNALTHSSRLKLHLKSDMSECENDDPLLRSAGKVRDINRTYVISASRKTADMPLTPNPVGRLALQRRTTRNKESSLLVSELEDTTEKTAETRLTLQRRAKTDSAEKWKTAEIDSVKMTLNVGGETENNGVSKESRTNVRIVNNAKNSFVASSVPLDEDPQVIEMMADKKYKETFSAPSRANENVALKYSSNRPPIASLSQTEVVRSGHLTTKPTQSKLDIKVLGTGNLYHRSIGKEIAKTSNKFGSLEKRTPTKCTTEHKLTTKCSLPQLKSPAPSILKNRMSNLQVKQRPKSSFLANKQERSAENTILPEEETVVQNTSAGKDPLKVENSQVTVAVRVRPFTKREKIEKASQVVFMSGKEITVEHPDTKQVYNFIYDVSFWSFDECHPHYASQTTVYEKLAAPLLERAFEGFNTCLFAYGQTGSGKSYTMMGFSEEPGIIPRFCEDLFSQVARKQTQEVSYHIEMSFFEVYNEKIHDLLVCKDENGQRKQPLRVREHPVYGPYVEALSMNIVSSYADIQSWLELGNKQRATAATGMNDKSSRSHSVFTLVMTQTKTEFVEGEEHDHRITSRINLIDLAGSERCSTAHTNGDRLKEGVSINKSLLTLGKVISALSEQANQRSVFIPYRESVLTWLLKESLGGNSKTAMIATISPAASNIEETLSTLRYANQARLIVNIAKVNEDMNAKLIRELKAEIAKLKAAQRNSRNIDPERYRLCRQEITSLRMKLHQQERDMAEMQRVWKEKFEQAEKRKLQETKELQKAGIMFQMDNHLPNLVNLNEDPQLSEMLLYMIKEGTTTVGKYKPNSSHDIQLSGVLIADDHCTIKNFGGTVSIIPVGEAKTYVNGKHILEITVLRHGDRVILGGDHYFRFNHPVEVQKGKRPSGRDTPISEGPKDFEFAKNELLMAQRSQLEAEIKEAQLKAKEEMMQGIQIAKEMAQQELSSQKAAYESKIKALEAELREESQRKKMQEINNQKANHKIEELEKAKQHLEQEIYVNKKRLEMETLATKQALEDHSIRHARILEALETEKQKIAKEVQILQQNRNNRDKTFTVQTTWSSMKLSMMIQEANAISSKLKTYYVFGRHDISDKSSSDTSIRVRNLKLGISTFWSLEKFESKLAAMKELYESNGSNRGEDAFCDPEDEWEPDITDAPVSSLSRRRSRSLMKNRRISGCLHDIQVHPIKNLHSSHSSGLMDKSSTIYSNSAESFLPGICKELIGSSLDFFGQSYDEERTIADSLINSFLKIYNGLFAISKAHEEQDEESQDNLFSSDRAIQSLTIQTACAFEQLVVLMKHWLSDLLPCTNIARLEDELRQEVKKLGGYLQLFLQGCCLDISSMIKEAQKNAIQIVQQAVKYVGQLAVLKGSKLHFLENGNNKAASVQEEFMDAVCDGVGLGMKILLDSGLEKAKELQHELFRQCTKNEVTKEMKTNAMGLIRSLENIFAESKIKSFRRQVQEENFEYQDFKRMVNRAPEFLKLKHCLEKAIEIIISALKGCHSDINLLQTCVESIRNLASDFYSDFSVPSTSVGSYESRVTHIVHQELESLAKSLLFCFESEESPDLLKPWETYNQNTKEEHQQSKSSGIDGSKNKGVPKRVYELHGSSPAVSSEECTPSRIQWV
# UniProt Q2TB10: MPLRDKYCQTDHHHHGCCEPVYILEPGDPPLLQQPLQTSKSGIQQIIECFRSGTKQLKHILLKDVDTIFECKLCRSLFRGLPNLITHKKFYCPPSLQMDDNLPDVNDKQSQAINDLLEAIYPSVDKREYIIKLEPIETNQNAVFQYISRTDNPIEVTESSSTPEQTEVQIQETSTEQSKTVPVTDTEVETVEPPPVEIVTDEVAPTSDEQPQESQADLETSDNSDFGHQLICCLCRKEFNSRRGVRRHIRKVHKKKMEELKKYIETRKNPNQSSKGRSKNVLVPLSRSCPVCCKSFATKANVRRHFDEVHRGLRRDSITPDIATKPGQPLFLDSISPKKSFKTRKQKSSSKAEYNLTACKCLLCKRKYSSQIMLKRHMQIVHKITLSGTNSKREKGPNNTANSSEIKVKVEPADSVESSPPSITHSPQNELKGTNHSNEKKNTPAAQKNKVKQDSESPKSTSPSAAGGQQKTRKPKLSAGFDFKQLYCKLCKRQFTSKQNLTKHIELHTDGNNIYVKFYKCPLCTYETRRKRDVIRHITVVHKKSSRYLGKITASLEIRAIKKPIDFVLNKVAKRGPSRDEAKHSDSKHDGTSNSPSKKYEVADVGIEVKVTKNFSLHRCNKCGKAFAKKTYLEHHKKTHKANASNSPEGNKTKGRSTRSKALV
# UniProt Q3YEC7: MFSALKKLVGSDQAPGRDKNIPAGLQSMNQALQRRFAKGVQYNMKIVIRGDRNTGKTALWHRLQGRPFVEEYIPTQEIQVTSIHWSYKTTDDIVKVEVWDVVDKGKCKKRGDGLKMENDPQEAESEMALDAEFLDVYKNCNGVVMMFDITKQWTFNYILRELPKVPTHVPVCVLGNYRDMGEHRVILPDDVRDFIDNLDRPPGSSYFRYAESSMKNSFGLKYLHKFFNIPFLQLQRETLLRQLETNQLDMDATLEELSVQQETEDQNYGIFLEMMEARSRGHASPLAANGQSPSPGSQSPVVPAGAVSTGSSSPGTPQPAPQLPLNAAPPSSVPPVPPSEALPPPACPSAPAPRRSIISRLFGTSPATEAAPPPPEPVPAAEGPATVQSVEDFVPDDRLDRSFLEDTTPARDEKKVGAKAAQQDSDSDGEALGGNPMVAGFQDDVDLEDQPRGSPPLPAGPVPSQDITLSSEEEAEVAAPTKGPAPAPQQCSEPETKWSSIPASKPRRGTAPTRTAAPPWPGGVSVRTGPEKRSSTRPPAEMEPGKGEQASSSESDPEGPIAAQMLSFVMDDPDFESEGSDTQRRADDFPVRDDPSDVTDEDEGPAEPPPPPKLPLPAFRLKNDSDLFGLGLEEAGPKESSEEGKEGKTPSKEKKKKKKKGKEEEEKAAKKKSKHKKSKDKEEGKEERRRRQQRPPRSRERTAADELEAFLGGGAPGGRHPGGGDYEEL
# UniProt Q16512: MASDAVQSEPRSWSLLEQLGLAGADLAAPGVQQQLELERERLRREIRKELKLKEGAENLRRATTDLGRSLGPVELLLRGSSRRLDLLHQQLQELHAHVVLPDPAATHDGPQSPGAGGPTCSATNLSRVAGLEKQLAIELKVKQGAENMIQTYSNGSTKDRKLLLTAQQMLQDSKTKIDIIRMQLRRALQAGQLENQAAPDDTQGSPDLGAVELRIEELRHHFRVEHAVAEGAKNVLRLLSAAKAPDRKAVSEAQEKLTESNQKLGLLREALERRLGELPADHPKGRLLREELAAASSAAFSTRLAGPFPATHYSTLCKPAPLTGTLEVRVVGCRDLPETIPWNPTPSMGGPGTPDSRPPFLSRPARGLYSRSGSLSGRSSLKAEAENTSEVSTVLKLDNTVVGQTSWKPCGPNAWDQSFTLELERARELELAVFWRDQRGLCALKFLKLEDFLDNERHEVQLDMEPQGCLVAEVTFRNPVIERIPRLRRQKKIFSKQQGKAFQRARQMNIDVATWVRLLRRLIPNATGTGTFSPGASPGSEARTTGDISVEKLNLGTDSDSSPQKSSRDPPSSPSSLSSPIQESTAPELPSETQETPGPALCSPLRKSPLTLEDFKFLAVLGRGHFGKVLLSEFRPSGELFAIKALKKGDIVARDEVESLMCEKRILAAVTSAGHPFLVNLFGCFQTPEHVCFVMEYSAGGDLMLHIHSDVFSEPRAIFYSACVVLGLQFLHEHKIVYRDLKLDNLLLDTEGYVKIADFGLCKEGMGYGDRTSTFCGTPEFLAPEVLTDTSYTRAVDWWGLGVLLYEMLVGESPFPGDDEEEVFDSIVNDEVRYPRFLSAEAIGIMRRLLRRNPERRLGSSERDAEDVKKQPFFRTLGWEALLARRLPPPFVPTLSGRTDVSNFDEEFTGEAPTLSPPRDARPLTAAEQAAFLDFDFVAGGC
# UniProt Q14566: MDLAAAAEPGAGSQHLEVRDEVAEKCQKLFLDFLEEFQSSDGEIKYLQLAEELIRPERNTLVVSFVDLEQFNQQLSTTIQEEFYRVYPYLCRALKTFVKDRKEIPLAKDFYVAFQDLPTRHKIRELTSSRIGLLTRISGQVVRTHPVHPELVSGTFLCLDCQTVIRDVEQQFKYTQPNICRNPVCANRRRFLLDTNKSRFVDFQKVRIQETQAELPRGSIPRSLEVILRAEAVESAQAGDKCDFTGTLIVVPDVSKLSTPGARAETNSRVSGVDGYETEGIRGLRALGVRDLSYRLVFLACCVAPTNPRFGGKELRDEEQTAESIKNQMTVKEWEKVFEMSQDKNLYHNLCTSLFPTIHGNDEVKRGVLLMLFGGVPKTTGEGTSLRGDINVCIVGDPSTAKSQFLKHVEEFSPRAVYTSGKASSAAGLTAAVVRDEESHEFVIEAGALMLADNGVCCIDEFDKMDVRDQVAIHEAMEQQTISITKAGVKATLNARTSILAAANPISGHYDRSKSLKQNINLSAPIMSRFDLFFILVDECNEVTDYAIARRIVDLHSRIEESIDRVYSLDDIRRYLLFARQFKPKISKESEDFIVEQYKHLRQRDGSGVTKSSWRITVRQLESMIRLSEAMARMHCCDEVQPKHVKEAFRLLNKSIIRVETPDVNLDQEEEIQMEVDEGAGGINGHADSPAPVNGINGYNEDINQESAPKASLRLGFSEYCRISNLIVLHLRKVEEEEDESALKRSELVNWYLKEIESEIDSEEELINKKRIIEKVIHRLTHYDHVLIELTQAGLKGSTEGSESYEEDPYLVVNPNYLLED
# UniProt Q14692: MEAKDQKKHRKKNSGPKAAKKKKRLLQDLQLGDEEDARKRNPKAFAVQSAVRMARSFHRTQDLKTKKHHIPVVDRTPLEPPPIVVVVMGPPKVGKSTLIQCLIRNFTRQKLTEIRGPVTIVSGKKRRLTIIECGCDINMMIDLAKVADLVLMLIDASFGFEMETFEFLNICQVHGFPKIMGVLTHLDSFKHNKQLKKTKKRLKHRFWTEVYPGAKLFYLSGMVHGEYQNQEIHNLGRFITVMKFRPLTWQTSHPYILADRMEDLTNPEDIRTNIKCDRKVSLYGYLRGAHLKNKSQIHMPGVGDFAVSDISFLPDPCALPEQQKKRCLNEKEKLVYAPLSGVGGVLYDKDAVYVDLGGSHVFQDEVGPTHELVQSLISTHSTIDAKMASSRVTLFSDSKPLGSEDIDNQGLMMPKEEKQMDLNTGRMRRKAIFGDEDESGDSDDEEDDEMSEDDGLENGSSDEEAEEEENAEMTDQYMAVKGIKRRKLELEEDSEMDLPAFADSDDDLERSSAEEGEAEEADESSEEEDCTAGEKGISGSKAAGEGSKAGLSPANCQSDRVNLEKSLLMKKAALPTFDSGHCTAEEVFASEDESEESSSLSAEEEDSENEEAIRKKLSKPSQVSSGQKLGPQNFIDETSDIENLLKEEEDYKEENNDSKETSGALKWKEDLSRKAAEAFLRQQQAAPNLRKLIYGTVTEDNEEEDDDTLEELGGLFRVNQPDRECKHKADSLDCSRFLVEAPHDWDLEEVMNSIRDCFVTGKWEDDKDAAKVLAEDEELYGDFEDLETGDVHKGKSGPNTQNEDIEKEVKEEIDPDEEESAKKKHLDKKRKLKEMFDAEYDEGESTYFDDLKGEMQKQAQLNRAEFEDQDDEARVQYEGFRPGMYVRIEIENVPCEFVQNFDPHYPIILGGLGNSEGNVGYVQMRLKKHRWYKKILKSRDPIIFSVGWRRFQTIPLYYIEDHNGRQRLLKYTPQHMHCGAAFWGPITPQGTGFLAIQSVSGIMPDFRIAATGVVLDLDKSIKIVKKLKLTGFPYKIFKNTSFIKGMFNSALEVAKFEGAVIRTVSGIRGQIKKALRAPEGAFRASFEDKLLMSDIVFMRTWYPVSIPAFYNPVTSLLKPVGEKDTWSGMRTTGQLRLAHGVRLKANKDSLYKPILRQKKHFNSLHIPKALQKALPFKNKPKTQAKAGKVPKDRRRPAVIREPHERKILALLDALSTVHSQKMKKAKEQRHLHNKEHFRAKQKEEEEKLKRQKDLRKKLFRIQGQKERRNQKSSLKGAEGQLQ
# ± gives the standard deviation of the averaged measurements. The entries are a selection whose mix differs from that of the whole data set.
# Compound: Nc1ncnc2c1ncn2[C@@H]1O[C@H](COP(=O)(O)OP(=O)(O)OP(=O)(O)O)[C@@H](O)[C@H]1O [adenosine triphosphate]
# Assay: NP40-soluble protein abundance relative to vehicle (solubility fold change) (ratio); higher = more soluble protein in presence of ATP
# In short: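 Across three independent experiments, values are fold changes against the detergent-processed vehicle for each replicate, based on vsn-normalised intensities. The samples were Jurkat crude lysate treated with eight concentrations (0.1 to 10 mM) for 10 min at room temperature and then 3 min at 37 °C. Lysate was solubilised with 0.8% NP40 and benzonase, ultracentrifuged, and the supernatant analysed by TMT-labelled LC-MS/MS.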
Target,NP40-soluble protein abundance (concentration: 1mM),NP40-soluble protein abundance (concentration: 2mM),NP40-soluble protein abundance (concentration: 4mM),NP40-soluble protein abundance (concentration: 6mM),NP40-soluble protein abundance (concentration: 8mM),NP40-soluble protein abundance (concentration: 10mM)
UniProt Q16829 and related entries,0.925 ± 0.033,0.945 ± 0.13,0.96 ± 0.052,0.955 ± 0.015,0.954 ± 0.0087,0.9079 ± 0.0045
FAM98C (UniProt Q17RN3),0.962 ± 0.051,0.989 ± 0.038,1.02 ± 0.018,0.938 ± 0.038,0.961 ± 0.021,0.985 ± 0.036
COX19 (UniProt Q49B96),0.971 ± 0.097,1.02 ± 0.1,0.969 ± 0.11,1.06 ± 0.13,0.869 ± 0.026,0.906 ± 0.071
KIF14 (UniProt Q15058),0.976 ± 0.12,1.01 ± 0.14,0.986 ± 0.12,1.03 ± 0.15,1 ± 0.11,1.05 ± 0.16
UniProt Q15043 and related entries,0.917 ± 0.069,0.963 ± 0.09,0.94 ± 0.072,0.958 ± 0.09,0.919 ± 0.075,0.896 ± 0.098
NSDHL (UniProt Q15738),0.957 ± 0.042,0.948 ± 0.048,0.931 ± 0.022,0.916 ± 0.1,0.937 ± 0.037,0.931 ± 0.054
FSCN1 (UniProt Q16658),1.05 ± 0.026,1.05 ± 0.049,1.08 ± 0.014,1 ± 0.062,1.06 ± 0.02,1.04 ± 0.075
ZNF800 (UniProt Q2TB10),1.03 ± 0.085,1.05 ± 0.098,1.19 ± 0.098,1.3 ± 0.06,1.33 ± 0.051,1.58 ± 0.3
UniProt Q3YEC7 and related entries,0.947 ± 0.011,0.939 ± 0.017,0.922 ± 0.026,0.9372 ± 0.0047,0.9061 ± 0.005,0.9121 ± 0.0072
ELAVL1 (UniProt Q15717),0.987 ± 0.034,0.965 ± 0.029,0.935 ± 0.012,0.996 ± 0.031,0.974 ± 0.018,0.973 ± 0.036
MVP (UniProt Q14764),1.06 ± 0.077,1.01 ± 0.13,1.01 ± 0.16,0.995 ± 0.21,0.986 ± 0.18,1.01 ± 0.17
UniProt Q16537 and related entries,1.02 ± 0.06,1.04 ± 0.05,1.01 ± 0.032,1.05 ± 0.011,0.987 ± 0.018,1.01 ± 0.075
MLEC (UniProt Q14165),0.984 ± 0.033,0.973 ± 0.016,0.9424 ± 0.0072,0.936 ± 0.074,0.942 ± 0.0095,0.954 ± 0.041
IAH1 (UniProt Q2TAA2),1 ± 0.025,1.02 ± 0.043,0.963 ± 0.028,0.943 ± 0.11,0.9928 ± 0.0054,0.939 ± 0.038
QPRT (UniProt Q15274),0.94 ± 0.052,0.948 ± 0.044,0.931 ± 0.024,0.914 ± 0.034,0.932 ± 0.068,0.945 ± 0.035
UniProt Q14240-2|Q14240,1.14 ± 0.091,1.15 ± 0.069,1.11 ± 0.067,1.15 ± 0.13,1.21 ± 0.066,1.21 ± 0.03
HNRNPUL2 (UniProt Q1KMD3),1.03 ± 0.033,0.956 ± 0.059,0.939 ± 0.082,0.963 ± 0.17,0.979 ± 0.14,0.989 ± 0.14
EIF2B1 (UniProt Q14232),0.937 ± 0.056,0.965 ± 0.043,0.9264 ± 0.006,0.871 ± 0.097,0.912 ± 0.024,0.951 ± 0.032
ATP6AP1 (UniProt Q15904),0.94 ± 0.067,0.945 ± 0.051,0.955 ± 0.046,0.909 ± 0.041,0.918 ± 0.063,0.933 ± 0.071
UniProt Q15365,1.02 ± 0.036,1.01 ± 0.032,1.014 ± 0.0066,1.04 ± 0.018,0.985 ± 0.014,0.973 ± 0.032
UniProt Q16512 and related entries,0.978 ± 0.02,0.974 ± 0.018,0.958 ± 0.02,0.988 ± 0.041,0.953 ± 0.034,0.951 ± 0.024
SMC1A (UniProt Q14683),0.995 ± 0.022,0.978 ± 0.019,0.952 ± 0.022,0.998 ± 0.036,0.968 ± 0.011,0.962 ± 0.016
MCM6 (UniProt Q14566),0.95 ± 0.054,0.945 ± 0.068,0.929 ± 0.057,0.883 ± 0.051,0.979 ± 0.034,0.915 ± 0.05
ESPL1 (UniProt Q14674),1.03 ± 0.092,0.884 ± 0.085,0.906 ± 0.15,0.973 ± 0.11,0.819 ± 0.14,0.924 ± 0.14
CD226 (UniProt Q15762),1.06 ± 0.11,0.908 ± 0.056,0.967 ± 0.055,0.959 ± 0.048,0.952 ± 0.058,0.936 ± 0.098
UniProt Q16206 and related entries,1.06 ± 0.069,1.002 ± 0.01,1.07 ± 0.036,1.02 ± 0.051,0.963 ± 0.042,0.928 ± 0.084
UniProt Q16718 and related entries,0.966 ± 0.13,0.912 ± 0.16,0.898 ± 0.14,0.977 ± 0.2,0.934 ± 0.14,0.862 ± 0.14
BMS1 (UniProt Q14692),1.02 ± 0.097,1.02 ± 0.074,1.04 ± 0.052,1.06 ± 0.077,1.02 ± 0.02,1.01 ± 0.073
UniProt Q15154 and related entries,1.03 ± 0.068,1 ± 0.051,1.04 ± 0.048,1.08 ± 0.087,1.03 ± 0.039,1.07 ± 0.042
UniProt Q32MZ4 and related entries,0.958 ± 0.064,0.939 ± 0.031,0.917 ± 0.015,0.984 ± 0.063,0.915 ± 0.018,0.899 ± 0.015

# Rewritten tab-delimited: entries from further up.
Target	NP40-soluble protein abundance (concentration: 1mM)	NP40-soluble protein abundance (concentration: 2mM)	NP40-soluble protein abundance (concentration: 4mM)	NP40-soluble protein abundance (concentration: 6mM)	NP40-soluble protein abundance (concentration: 8mM)	NP40-soluble protein abundance (concentration: 10mM)
UniProt Q3YEC7 and related entries	0.947 ± 0.011	0.939 ± 0.017	0.922 ± 0.026	0.9372 ± 0.0047	0.9061 ± 0.005	0.9121 ± 0.0072
ELAVL1 (UniProt Q15717)	0.987 ± 0.034	0.965 ± 0.029	0.935 ± 0.012	0.996 ± 0.031	0.974 ± 0.018	0.973 ± 0.036
